Experimental data as given in PubChem BioAssay AID504834 (National Center for Advancing Translational Sciences (NCATS), 2011).
“And” between values parts separate entries of the source, which are not always exact repeats. Equal entries are not always repeated. Among all 320,000 compounds or so, about 22,000 (6.9%) were called active. Inconclusive means that the source gave no clear call. Such entries were picked first, then a sample of the others. Calls follow the shape of the dose curve; as a rule, active = well fitted inhibition curve with a large enough effect; inconclusive = small, poorly fitted or top-dose-only effect, or another doubt; inactive = no such curve, though single readings can be large or run the other way. Potencies beside an inconclusive call are fits to weak or partial responses and may not hold up.

assay: Primary qHTS for delayed death inhibitors of the malarial parasite plastid, 96 hour incubation; details: P. falciparum luciferase reporter growth; series mostly up to 28.7 µM
In short: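 P. falciparum expressing integrated firefly luciferase grown in erythrocytes (2% hematocrit, 0.05% parasitemia final) with compounds for 96 hours at 37 C, 5% CO2. Growth inhibition read as loss of luminescence after adding luciferase detection reagent.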
Potency is read from the fitted curve at half-maximal effect.

Compound | Potency
NS(=O)(=O)c1ccc(NC(=O)Cc2cccs2)cc1 | inconclusive: 2.62 µM [inhibitor, full curve, poor fit]
CC(C)Oc1ccc(NC(=O)c2ccncc2)cc1 | inactive
CCCN(CC(=O)Nc1ccc(F)c(F)c1F)CC(=O)Nc1c(Cl)cccc1Cl | inconclusive: 16.5 µM [inhibitor, single point]
COc1ccc(C(=O)N2CCC(C(=O)NCc3ccccn3)CC2)cc1 | inactive
Cc1ccc(NCc2nnc(SCC(=O)NCc3ccco3)n2CC2CCCO2)c(C)c1 (configuration not stated) | inconclusive: 0.0026 µM [inhibitor, full curve, poor fit]
COc1cc(CCC(=O)N2CCN(c3ccc(N4CCOCC4)nn3)CC2)cc(OC)c1OC | active: 7.38 µM
CC(C)(C)n1ncc2c(=O)n(CC(=O)Nc3ccc(Cl)cc3)cnc21 | inactive
CC1CN(C(=O)c2cccc(COc3ccc(Br)cc3)c2)CC(C)O1 (configuration not stated) | inactive
COc1ccc(/C=N\NC(=O)c2ccccc2OC)cc1COc1c(F)c(F)c(F)c(F)c1F | inconclusive: 18.5 µM [inhibitor, single point]
Cc1ccc(C(=O)CC2(O)C(=O)N(Cc3ccccc3)c3ccccc32)o1 (configuration not stated) | inconclusive: 0.465 µM [inhibitor, full curve, poor fit]
Cc1cccc(C)c1NC(=O)CCS(=O)(=O)c1ccc(Br)cc1 | inactive
COc1ccc(C(=O)CSc2nnc(CN3CCCC3)n2-c2ccc(F)cc2)c(OC)c1 | inconclusive: 10.4 µM [inhibitor, partial curve]
CCOc1ccc(NC(=S)NCc2ccc3c(c2)OCO3)cc1 | inconclusive: 18.5 µM [inhibitor, single point]
CC(C)C1N(S(=O)(=O)c2ccccc2)CCN1S(=O)(=O)c1ccccc1 | inactive
CCOC(=O)N1CCC(N(CCN(C)C)C(=S)Nc2cccc(OC)c2)CC1 | active: 7.38 µM
CC(/C=N/NC(=O)c1cc(-c2ccccc2)nc2ccccc12)=C\c1ccco1 | inconclusive: 11.7 µM [inhibitor, partial curve]
O=C(Nc1ccccc1)c1ccccc1CSc1ccccc1 | inconclusive: 18.5 µM [inhibitor, single point]
N#CCCN(C(=O)COc1ccc(C#N)cc1)c1ccc(F)cc1 | inactive
CCOc1ccc(N=C2Sc3nc4ccc(C)cc4cc3CN2CCOC)cc1 | inactive
CCN(C(=O)CSc1nc2cc(S(=O)(=O)N(CC)CC)ccc2o1)C1CCS(=O)(=O)C1 (configuration not stated) | inconclusive: 0.329 µM [inhibitor, partial curve, poor fit]
CC(C)CCNC(=O)Cc1ccccc1[N+](=O)[O-] | inconclusive: 0.0657 µM [inhibitor, full curve]
O=C(Nc1cc(S(=O)(=O)N2CCCCCC2)ccc1OCC(F)(F)F)c1cnccn1 | inconclusive: 18.5 µM [inhibitor, single point]
CC(NC(=O)CCN1C(=O)c2ccccc2C1=O)c1ccccc1 (configuration not stated) | inconclusive: 18.5 µM [inhibitor, single point]
O=C(c1cccs1)N1CCCC(c2nc(-c3ccc(F)cc3)no2)C1 (configuration not stated) | inconclusive: 18.5 µM [inhibitor, single point]

Compound | Potency
O=C1Cc2cc(S(=O)(=O)Nc3ccc(F)cc3Cl)ccc2N1 | inconclusive: 18.5 µM [inhibitor, single point]
Fc1cccc(Cl)c1/C=N/Nc1c(Cl)cncc1Cl | inconclusive: 3.29 µM [inhibitor, partial curve, poor fit]
COc1ccc(C)cc1NC(=O)Nc1cccc(C)c1 | inconclusive: 10.4 µM [inhibitor, partial curve, poor fit]
COc1cccc(/C=N/NC(=O)Cn2cnc3c2c(=O)n(C)c(=O)n3C)c1 | inactive
CCOc1ccccc1NC(=O)c1ccc(C(=O)Nc2ccccc2OCC)nc1 | inconclusive: 20.8 µM [inhibitor, single point]
COc1ccc(S(=O)(=O)N(CCCN2CCOCC2)Cc2cccc(OC)c2OC)cc1 | inconclusive: 18.5 µM [inhibitor, single point]
Oc1ccc(-c2onc(C(F)(F)F)c2-c2cscn2)c(O)c1 | inactive
COc1ccc(C2=C/C(=C\c3ccccc3OC(C)=O)C(=O)O2)cc1 | inactive
O=C(NC1CCCC1)c1ccc(CS(=O)Cc2ccccc2Cl)o1 (configuration not stated) | inactive
COc1ccc(C2=NN(S(=O)(=O)c3ccccc3)C(c3ccccc3)C2)cc1 (configuration not stated) | active: 6.57 µM
COc1ccc(NC(=O)CCSc2ccc(C)cc2)cc1S(=O)(=O)Nc1ccccc1Cl | inconclusive: 13.1 µM [inhibitor, single point]
C=CCn1c(SCC(=O)NC2CC2)nc2sc(CC)cc2c1=O | inconclusive: 18.5 µM [inhibitor, partial curve, poor fit]
O/N=C/c1cn(-c2ccccc2)nc1-c1ccccc1 | inactive
Cc1cc2nn(-c3ccccc3)nc2cc1NC(=O)c1cccs1 | inconclusive: 11.7 µM [inhibitor, single point]
N#Cc1ccc(C(=O)Nn2cnnc2)cc1 | inactive
COc1ccc(-c2cc3c(=O)n(CC(=O)NCc4cccnc4)nc(C)n3n2)cc1 | inconclusive: 0.165 µM [inhibitor, full curve, poor fit]
Nc1ccc(-c2nc3ccccc3o2)cc1 | inactive
O=C(CSc1nc(-c2ccc(F)cc2)nc2c1Cc1ccccc1O2)Nc1cccc(C(=O)O)c1 | inconclusive: 9.28 µM [inhibitor, partial curve, poor fit] and inconclusive: 4.65 µM [inhibitor, partial curve, poor fit]
CCOC(=O)C1=C(C(F)(F)F)Nc2ncnn2C1c1cc(OC)ccc1OC (configuration not stated) | inactive
Cc1ccc(CNC(=O)c2ccc(N3CCC4(CC3)CC(c3ccccc3)=NO4)c(NC(=O)c3ccco3)c2)cc1 | active: 1.04 µM
Cc1ccc(C(=O)NCCc2nnc3ccc(SCC(=O)Nc4ccccc4F)nn23)cc1 | inactive
Cc1ccc(S(=O)(=O)Nc2cccc(-c3ccc(N4CCCCCC4)nn3)c2)cc1C | active: 13.1 µM
CN(C(=O)C(=O)c1cn(CC(=O)N2CCCC2)c2ccccc12)C1CCCCC1 | inactive
Cn1c2c(c(=O)n(C)c1=O)C(NS(=O)(=O)c1ccccc1)(C(F)(F)F)C(=O)N2 (configuration not stated) | inconclusive: 8.28 µM [inhibitor, partial curve]

Compound | Potency
CCn1c(=O)c([N+](=O)[O-])c(NCc2ccc3c(c2)OCO3)c2ccccc21 | inactive
COc1ccc(CC(=O)N/N=C(\C)c2cccnc2)cc1 | inactive
COC(c1ccccc1)c1nnc(CCC(=O)NCCCc2ccccc2)o1 (configuration not stated) | inconclusive: 11.7 µM [inhibitor, partial curve, poor fit]
O=C(CCNC(=O)Cn1ccc2ccccc2c1=O)NCc1ccccn1 | inconclusive: 1.04 µM [inhibitor, full curve, poor fit]
C/C(=N\NC(=S)NC(C)C)c1ccc(Cl)c([N+](=O)[O-])c1 | inconclusive: 18.5 µM [inhibitor, single point]
COc1ccc(/[N+]([O-])=C/c2ccoc2)cc1 | inactive
CCCc1cc(=O)n2[nH]c(C)c(-c3ccc(OC)cc3)c2n1 | inconclusive: 11.7 µM [inhibitor, single point]
Cc1ccc(SCC(=O)N(C)C2CCS(=O)(=O)C2)cc1 (configuration not stated) | inconclusive: 5.22 µM [inhibitor, partial curve, poor fit]
CCOC(=O)c1c(-c2ccc(C)s2)csc1N | inconclusive: 16.5 µM [inhibitor, single point]
Cc1ccc(C2=NN(C(=O)CCCC(=O)O)C(c3ccco3)C2)cc1 (configuration not stated) | inactive
O=C(CNC(=S)NC(=O)c1ccccc1)c1ccccc1 | inactive
Cc1nc(N2CCN(S(=O)(=O)c3ccccc3C#N)CC2)c2c(-c3cccs3)csc2n1 | inconclusive: 5.22 µM [inhibitor, partial curve, poor fit]
Cc1ccc(OCCCCn2ccnc2)c([N+](=O)[O-])c1 | inconclusive: 2.08 µM [inhibitor, full curve]
COc1ccc(CCNC(=O)C(=O)c2cn(CC(=O)N3CCOCC3)c3ccccc23)cc1 | inconclusive: 14.7 µM [inhibitor, single point]
c1ccc(CN2CCN(CCN3CCn4c3nc3ccccc34)CC2)cc1 | inconclusive: 0.465 µM [inhibitor, full curve]
COc1ccc(N/C=C2\C(=O)CCc3c2oc2cc(Cl)c(O)c(Cl)c32)cc1 | inconclusive: 18.5 µM [inhibitor, single point]
CC1=NN(/C(=N\c2nnc(C)s2)Nc2ccccc2)[C@H](c2ccc(C)cc2)S1 | inconclusive: 1.17 µM [inhibitor, partial curve]
COc1ccc2oc3ccccc3c(=O)c2c1 | inactive
Nc1nc(NCc2ccco2)nc(Nc2ccc(F)cc2)c1[N+](=O)[O-] | inactive
CCOc1ccc(NC(=O)C2CC(C)=C(C)CC2C(=O)O)cc1 (configuration not stated) | inconclusive: 10.4 µM [inhibitor, partial curve]
CC(C)COc1nc2c(c(=O)n(C)c(=O)n2C)n1C | inconclusive: 18.5 µM [inhibitor, single point]
Cc1ccc(N2C(=O)c3ccc(C(=O)N4CCN(Cc5ccccc5)CC4)cc3C2=O)cc1 | inactive
O=C1N=c2ccccc2=C/C1=C\c1c(O)[nH]c(=S)[nH]c1=O | inconclusive: 16.5 µM [inhibitor, single point]
Cc1ccc(CN(CC(=O)N/N=C/c2ccco2)S(=O)(=O)c2ccc(C)cc2)cc1 | inactive

Reprinted at random: 3 records from the list
Compound | Potency
COC(c1ccccc1)c1nnc(CCC(=O)NCCCc2ccccc2)o1 (configuration not stated) | inconclusive: 11.7 µM [inhibitor, partial curve, poor fit]
Nc1nc(NCc2ccco2)nc(Nc2ccc(F)cc2)c1[N+](=O)[O-] | inactive
COc1ccc2oc3ccccc3c(=O)c2c1 | inactive
